Results reported in PMC8854633.
These are yes or no findings as the source states them, for the method shown. Binding seen in cells or lysates may run through a third protein. Some results given as binding are weak or reduced against the parent protein; the word gives no strength.

Legend:
Kdm6b = Kdm6b (UniProt Q5NCY0); test: co-IP; as a1, but Kdm6b, Isl1 and Lhx3 co-expressed together in HEK293 cells
[1] = target: Kdm6b C-terminal region (672-1642 amino acids) (UniProt Q5NCY0); test: co-IP; HEK293 cells transfected with two constructs (Lipofectamine 2000), harvested after 48 h in lysis buffer (20 mM Tris-HCl pH 8.0, 120 mM NaCl, 1 mM EDTA, 0.5% NP-40, protease inhibitors); 2 ug antibody overnight, Protein A agarose 2 h at 4 °C; immunoblot with HA or Flag antibodies
[2] = target: T1, Kdm6b N-terminal region (1-809 amino acids) (UniProt Q5NCY0); test: as above
T1 sequence: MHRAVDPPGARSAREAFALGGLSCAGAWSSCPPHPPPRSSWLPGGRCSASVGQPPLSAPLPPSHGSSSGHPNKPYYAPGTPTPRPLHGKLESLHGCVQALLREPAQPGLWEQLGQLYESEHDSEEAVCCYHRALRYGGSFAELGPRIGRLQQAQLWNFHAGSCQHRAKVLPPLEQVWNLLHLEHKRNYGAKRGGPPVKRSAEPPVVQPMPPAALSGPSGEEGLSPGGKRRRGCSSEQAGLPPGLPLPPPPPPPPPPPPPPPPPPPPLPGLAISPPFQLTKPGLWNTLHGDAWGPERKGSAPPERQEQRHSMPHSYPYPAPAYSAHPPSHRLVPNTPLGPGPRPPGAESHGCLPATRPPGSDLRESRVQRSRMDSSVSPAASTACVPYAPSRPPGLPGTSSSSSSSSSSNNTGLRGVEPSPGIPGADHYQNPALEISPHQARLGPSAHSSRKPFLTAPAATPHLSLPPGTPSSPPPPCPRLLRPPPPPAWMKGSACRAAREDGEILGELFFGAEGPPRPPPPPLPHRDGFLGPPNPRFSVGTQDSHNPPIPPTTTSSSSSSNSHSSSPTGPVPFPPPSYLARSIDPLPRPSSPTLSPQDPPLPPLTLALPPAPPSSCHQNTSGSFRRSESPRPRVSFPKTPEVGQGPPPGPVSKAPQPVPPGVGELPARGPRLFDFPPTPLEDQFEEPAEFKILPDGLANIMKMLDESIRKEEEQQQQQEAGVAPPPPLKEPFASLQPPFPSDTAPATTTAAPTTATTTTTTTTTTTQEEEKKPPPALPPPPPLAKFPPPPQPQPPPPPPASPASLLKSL

binding (Kdm6b): binds | binding [1]: no binding | binding [2]: binds
B1: Lhx3 (protein, UniProt P50481 1-400)
chain: MLLEAELDCHRERPGAPGASALCTFSRTPEIPMCAGCDQHILDRFILKALDRHWHSKCLKCSDCHVPLAERCFSRGESVYCKDDFFKRFGTKCAACQLGIPPTQVVRRAQDFVYHLHCFACVVCKRQLATGDEFYLMEDSRLVCKADYETAKQREAEATAKRPRTTITAKQLETLKSAYNTSPKPARHVREQLSSETGLDMRVVQVWFQNRRAKEKRLKKDAGRQRWGQYFRNMKRSRGSSKSDKDSIQEGQDSDAEVSFTDEPSMADMGPANGLYSSLGEPAPALGRPVGGLGSFTLDHGGLTGPEQYRELRPGSPYGIPPSPAAPQSLPGPQPLLSSLVYPDTNLSLVPSGPPGGPPPMRVLAGNGPSSDLSTESSSGYPDFPASPASWLDEVDHAQF
